From paper PMC9825174 come the findings set out here.

Amino acid sequences for entries named in this document (tags omitted).
UniProt Q16531: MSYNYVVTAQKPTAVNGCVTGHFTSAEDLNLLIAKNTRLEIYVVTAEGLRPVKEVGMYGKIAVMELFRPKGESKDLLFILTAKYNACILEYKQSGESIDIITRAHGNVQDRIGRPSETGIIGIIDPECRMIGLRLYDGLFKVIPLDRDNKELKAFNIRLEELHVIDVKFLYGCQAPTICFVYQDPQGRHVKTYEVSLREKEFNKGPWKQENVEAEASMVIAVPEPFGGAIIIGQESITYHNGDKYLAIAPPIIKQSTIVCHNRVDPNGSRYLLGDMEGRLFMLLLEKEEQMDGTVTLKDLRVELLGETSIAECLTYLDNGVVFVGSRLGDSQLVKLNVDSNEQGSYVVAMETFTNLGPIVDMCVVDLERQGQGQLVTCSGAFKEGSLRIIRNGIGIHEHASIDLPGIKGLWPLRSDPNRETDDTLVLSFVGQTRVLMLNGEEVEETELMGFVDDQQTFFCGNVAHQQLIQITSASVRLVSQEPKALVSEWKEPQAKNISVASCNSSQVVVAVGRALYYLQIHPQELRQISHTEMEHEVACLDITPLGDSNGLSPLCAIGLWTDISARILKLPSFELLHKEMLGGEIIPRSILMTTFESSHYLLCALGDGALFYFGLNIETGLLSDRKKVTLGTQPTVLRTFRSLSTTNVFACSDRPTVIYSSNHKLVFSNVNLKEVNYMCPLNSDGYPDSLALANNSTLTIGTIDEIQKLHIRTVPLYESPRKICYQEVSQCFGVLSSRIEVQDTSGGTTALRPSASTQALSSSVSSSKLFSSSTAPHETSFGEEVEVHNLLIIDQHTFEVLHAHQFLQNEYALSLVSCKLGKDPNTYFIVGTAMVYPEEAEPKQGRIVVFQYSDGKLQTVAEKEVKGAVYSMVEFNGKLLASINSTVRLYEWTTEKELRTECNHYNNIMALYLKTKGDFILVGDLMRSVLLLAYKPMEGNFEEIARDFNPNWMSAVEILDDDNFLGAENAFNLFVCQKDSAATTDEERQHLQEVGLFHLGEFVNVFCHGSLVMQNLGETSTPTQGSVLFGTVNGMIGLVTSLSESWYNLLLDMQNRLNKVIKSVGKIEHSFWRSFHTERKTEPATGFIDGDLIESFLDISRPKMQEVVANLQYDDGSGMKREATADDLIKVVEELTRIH
UniProt Q92466: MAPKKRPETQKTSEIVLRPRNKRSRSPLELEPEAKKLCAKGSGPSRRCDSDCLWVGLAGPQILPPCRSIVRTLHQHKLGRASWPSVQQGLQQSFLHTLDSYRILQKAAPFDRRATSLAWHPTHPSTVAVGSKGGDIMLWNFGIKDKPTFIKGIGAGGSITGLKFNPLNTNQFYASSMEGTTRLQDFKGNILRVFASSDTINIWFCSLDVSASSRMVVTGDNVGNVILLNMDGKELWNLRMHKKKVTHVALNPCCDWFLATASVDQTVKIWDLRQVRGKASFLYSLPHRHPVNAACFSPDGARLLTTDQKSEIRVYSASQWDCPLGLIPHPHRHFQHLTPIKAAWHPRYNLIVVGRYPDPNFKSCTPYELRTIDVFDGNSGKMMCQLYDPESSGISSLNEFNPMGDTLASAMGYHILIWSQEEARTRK

This assay has as its target DDB1-His6 (UniProt Q16531). The assay can be described thus: co-purification (Ni affinity, anti-FLAG affinity, SEC); DDB1-His6 and DDB2-Flag co-expressed in Sf9; His-Trap HP column, anti-FLAG M2 affinity gel, then HiLoad 16/60 Superdex 200 in 50 mM HEPES pH 7.5, 200 mM KCl, 1 mM EDTA, 2 mM DTT, 10% glycerol.

No constants are given. Whether binding was seen depends on the method and setting. Some entries that bind do so weakly or less than the wild type.

On to DDB2-Flag (from UniProt Q92466 1-427), for which the binding entry is “binds”.
